The supplement of paper PMC6522484
± gives the standard deviation of the averaged measurements. For some of these results: The lowest values were mostly taken out for another list; the other results follow. The entries are a selection whose mix differs from that of the whole data set.

Assays:
Experiment in all cases: cell viability (CellTiter-Glo) relative to plate median (fraction of plate median); higher = more viable cells
DLD1 [1] = conditions: 5 µM; treatment time 24 h; reporter: 7TFP
Summary of the method: (§1)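 Values are well luminescence normalised to the plate median, from either a firefly luciferase or a CellTiterGlo readout on parallel plates. The cells, colorectal cancer lines stably transduced with lentiviral 7TFP or TCF4/Wnt firefly luciferase reporters, were treated with library compounds at a final 5 µM for 24 h. The mean of two independent replicates is listed.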

HCT116 [2] = conditions: 5 µM; treatment time 24 h; reporter: TCF4/Wnt
Summary of the method: as §1

SW480 [3] = conditions: 5 µM; treatment time 24 h; reporter: 7TFP
Summary of the method: as §1

DLD1 [4] = conditions: 10 µM, treatment time 24 h
Summary of the method: (§2)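 Each value averages two independent replicates in which the well signal was normalised to the plate median (webcellHTS2, additive, without log transformation). The signal was firefly luciferase or CellTiterGlo luminescence, read on parallel plates with a Tecan F500. The cells were colorectal cancer lines with stable lentiviral TCF/Wnt firefly luciferase reporters in 384-well plates, dosed 24 h after seeding with kinase inhibitor library compounds at a final 10 µM for 24 h.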

HCT116 [5] = conditions: 10 µM; treatment time 24 h; reporter: TCF4/Wnt
Summary of the method: as §2

SW480 [6] = conditions: 10 µM; treatment time 24 h; reporter: 7TFP
Summary of the method: as §2

## CN1C2CCC1CC(OC(=O)C(O)c1ccccc1)C2 (configuration not stated)
DLD1 [1]
  cell viability: 1.1 ± 0.014
HCT116 [2]
  cell viability: 1.09 ± 0.042
SW480 [3]
  cell viability: 1.15 ± 0.028

## Cc1ccccc1-n1c(Cn2nc(-c3cccc(O)c3)c3c(N)ncnc32)nc2cccc(C)c2c1=O
DLD1 [4]; reporter: 7TFP
  cell viability: 0.939 ± 0.0071
DLD1 [4]; reporter: TCF4/Wnt
  cell viability: 0.987 ± 0.033
HCT116 [5]
  cell viability: 1.15 ± 0.2
SW480 [6]
  cell viability: 0.967 ± 0.0085
